Assay results published in publication PMC6739875.
Like-named read-outs stand apart in the source and are kept apart here. Results are given in words; binding and its absence hold for the method and conditions named. In cells and extracts the contact can be indirect. These calls come from enrichment with a bait or labelling near it, and not all partners need be listed. Where a sequence is shown, tags or fusion partners need not be part of it.

T1: FLAG-tagged EEN expressed in Col-0 35S:EEN plants (A. thaliana) (UniProt Q8RWS0)
T1 sequence: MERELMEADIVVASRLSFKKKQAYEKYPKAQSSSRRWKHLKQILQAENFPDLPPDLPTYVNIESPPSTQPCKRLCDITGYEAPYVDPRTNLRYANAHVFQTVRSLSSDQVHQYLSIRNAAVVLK


What was measured:
[1] = target: T1, FLAG-tagged EEN expressed in Col-0 35S:EEN plants (A. thaliana); test: affinity purification with mass spectrometry; nuclear extracts of Col-0 35S:EEN-FLAG flowers on Anti-FLAG M2 Magnetic Beads for 2 hr, washed with Sonic buffer; two independent IPs; non-transgenic Col-0 as control
[2] = target: T1, FLAG-tagged EEN expressed in Col-0 35S:EEN plants (A. thaliana); test: as above; remark: listed apart in the source

binding [1] | binding [2] | Molecule
binds | – | helicase RVB2, endogenous
– | binds | ARP5 (ACTIN-RELATED PROTEIN5), endogenous (protein, UniProt Q940Z2 1-724) MAFVSRIRRQSDYNTYPSSIPIVIDNGASYFRIGWAGETEPRVVFRNIVQRPRHKATGETVTIVGDLDPSMMKYFDCTRSGPRSPFDSNVVYQFEIMEYILDYAFDRLGANGSGIDHPILITECACNPVQSRSKMAELLFETYGVPAVAFGVDAAFSYKYNQLHGICKKDGIVLCPGFTTTHSIPFVDGEPIYKGSSRTNIGGYHVTDYLKQLLSLKYPFHSSRFTWEKAEDLKLEHCYIAPDYASEIRLFQEGRKEAEEKTSYWQLPWIPPPTEVPPSEEEIARKAAIREKQGQRLREMAEAKRVSKINDMENQLISLRFLLKQVDQVEEDDIPTFLSDTGYASRQELESTITKVTQSLRKARGEPKNEPAEYEENPDSLNNEKYPLMNVPDDILTPEQLKDKKRQMFLKTTAEGRLRARQKRNEEELEKEKRNQLEEERRRENPESYLEELQAQYKEVLERVEQKKRLKTNGSSNGNNKSGGIGRGERLSAAQRERMRLLTTAAFDRGKGEDTFGSRDEDWQLYKLMSKDNDDDDEQPDSDEAELARLSSRLQEIDPTFVQKVEGELSQTSGEVPRVRPLTEEDYKIVIGIERFRCPEILFHPNLIGIDQVGLDEMAGTSIRRLPHDEKELEERLTSSILMTGGCSLLPGMNERLECGIRMIRPCGSPINVVRAMDPVLDAWRGASAFAANLNFLGNAFTKMDYDEKGEDWLRNYQIRYNYL
